Reference: patent publication US20050129614A1
These are yes or no findings as the source states them, for the method shown. Some results given as binding are weak or reduced against the parent protein; the word gives no strength.

Protein sequences, listed by entry. Tags and fused reporters are not part of them. Lines headed by an entry give the natural chain unless they say otherwise; changes in a name come on top.
UniProt O43557: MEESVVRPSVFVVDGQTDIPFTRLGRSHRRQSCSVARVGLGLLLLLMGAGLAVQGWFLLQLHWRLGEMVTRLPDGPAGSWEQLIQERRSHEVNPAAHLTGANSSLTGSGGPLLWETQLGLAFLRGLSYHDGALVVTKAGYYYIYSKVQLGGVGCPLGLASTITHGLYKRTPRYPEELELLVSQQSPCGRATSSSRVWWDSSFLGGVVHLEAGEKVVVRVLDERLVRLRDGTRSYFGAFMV

Assays:
TL5 polypeptide (human) [1] = target: TL5 polypeptide (human) (UniProt O43557); assay: phage display selection of scFvs
TL5 polypeptide (human) [2] = target: TL5 polypeptide (human) (UniProt O43557); assay: phage display selection of scFvs (table title)

binding (TL5 polypeptide (human) [1]): binds | binding (TL5 polypeptide (human) [2]): binds
B1: L006C05 scFv (scFv)
scFv: QVQLQQSGAEVKKPGASVKVSCKASGYTFTSYYMHWVRQAPGQGLEWMGIINPSGGSTTYAQNFQGRVTMTRDTSTSTVYMELSSLRSEDTAVYYCARGVGAGNWFDPWGKGTMVTVSSGGGGSGGGGSGGGGSQSVLTQPASVSGSPGQSITISCTGTSSDVGGYNYVSWYQQHPGKAPELMIYEGSKRPSGVSNRFSGSKSGNTASLTISGLQAEDEADYYCSSYTTRSTRVFGGGTKLTVLG
